Assay results from patent publication US6358491B1, “Somatostatin analogs” (Berlex Laboratories, Inc., priority 1999, dated 2002).
Part of at least one peptide drawing is inferred or uncertain, most often the ends.

Tested on: SSTRs, NCI-H69 membranes
Test: [125I]SST-14 binding to NCI-H69 cell membranes (SSTR affinity)
Parameters: species or system human
Settings: inhibition of [125I]SST-14 binding; two-site fit; read-out: IC50 Values for Uncomplexed Compounds, NCI-H69 (first value)
Method: [^125I-Tyr^11] somatostatin-14 ([^125I]SST-14) was obtained from Amersham. Unlabeled somatostatin-14 was purchased either from BACHEM (Torrance, Calif.) or from Sigma Chemical Co. (St. Louis, Mo.). Protease inhibitors, leupeptin, aprotinin, bacitracin, and benzamidine and other reagents were obtained from Sigma. Protease inhibitors were prepared in dimethylsulfoxide (DMSO) at a concentration 500×higher than the final assay concentration. The prepared protease solution was stored at −20° C. and diluted with the buffer solution before use.
Membrane preparations used in these studies were prepared from two commercially available tumor cell lines, the human small cell lung cancer cell line, NCI-H69, and the rat pancreatic tumor cell line, AR42J, obtained from American Type Culture Collection (ATCC) (Manassas, Va.). […]
Cultured cells were first detached from plates with phosphate-buffered saline, pH 7.4, containing 2 mM EDTA, and centrifuged at 1,500×g for 10 min. […] Membrane protein concentration was determined spectroscopically using the bicinchonic acid (BCA) protein assay kit (Pierce Chemical Inc. (Rockford, Ill.).
All [^125I]SST-14 binding assays were performed in 0.5 mL binding buffer containing 50 mM HEPES, pH 7.5, 10 mM MgCl2, 0.25% BSA (w/v) containing protease inhibitors (same as above) and incubated at 37° C. for 45 minutes. […] The percent inhibition (% Inh) by peptide was expressed as […]

## C[C@@H](O)[C@@H]1NC(=O)[C@H](CCCCN)NC(=O)[C@@H](Cc2c[nH]c3ccccc23)NC(=O)[C@H](Cc2ccc(O)cc2)NC(=O)[C@H](CCSCC(=O)NCCC[C@H](N)C(=O)NCC(=O)N[C@@H](CS)C(N)=O)N(C)C(=O)[C@H](Cc2ccccc2)NC1=O [cyclo-Tyr-D-Trp-Lys-Thr-Phe-(N—CH3)Hcy(CH2 CO-δ-Orn-Gly-Cys-NH2)]
  IC50: 2.92 nM
